Test results: US20190194329A1 (AbbVie / Abbott, published 2019)
These are yes or no findings as the source states them, for the method shown. Some results given as binding are weak or reduced against the parent protein; the word gives no strength. Tags and fused reporters may be left off the sequences shown.

Target: T1, His-tagged ECD of mouse 4-1BB (mouse, UniProt P20334 24-187)
T1 construct: also called murine 4-1BB; mu4-1BB; not shown: His tag
T1 sequence: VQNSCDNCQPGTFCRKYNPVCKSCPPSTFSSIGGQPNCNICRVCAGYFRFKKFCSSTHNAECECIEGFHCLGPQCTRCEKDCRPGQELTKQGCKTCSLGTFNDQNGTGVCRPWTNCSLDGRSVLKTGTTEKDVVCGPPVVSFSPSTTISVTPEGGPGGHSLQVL
Assay: SPR (Biacore)

- binding: binds
B1: Rat TABBY108 with rat IgG1 constant (antibody, V domains shown)
VH: EIQLQESGPGLVRPSQSLSLACSVTGYTITSAYDWSWIRKFPGNKMEWMGYIAYIGFTNSNPSLKSRISITRDTSKNQFFLQLKSVTTEDTATYYCARWSSYIPRYFDFWGPGTMVTVSS
VL: QAVLTQPNSVSTSLGSTVKLSCTITSGNIEDNFVHWYQHYEGRSPTTMIHNDDKRPDGVPDRFSGSIDSSSNSAFLTINNVEIEDEAIYFCHSYVSSINIFGGGTKLTVL
